For one substance, binding results are on record in publication PMC3217016.

Sequences of proteins named here, by UniProt entry; tags and fusion partners are left off. Residues count along the entry.
UniProt P08631, residues 22-526: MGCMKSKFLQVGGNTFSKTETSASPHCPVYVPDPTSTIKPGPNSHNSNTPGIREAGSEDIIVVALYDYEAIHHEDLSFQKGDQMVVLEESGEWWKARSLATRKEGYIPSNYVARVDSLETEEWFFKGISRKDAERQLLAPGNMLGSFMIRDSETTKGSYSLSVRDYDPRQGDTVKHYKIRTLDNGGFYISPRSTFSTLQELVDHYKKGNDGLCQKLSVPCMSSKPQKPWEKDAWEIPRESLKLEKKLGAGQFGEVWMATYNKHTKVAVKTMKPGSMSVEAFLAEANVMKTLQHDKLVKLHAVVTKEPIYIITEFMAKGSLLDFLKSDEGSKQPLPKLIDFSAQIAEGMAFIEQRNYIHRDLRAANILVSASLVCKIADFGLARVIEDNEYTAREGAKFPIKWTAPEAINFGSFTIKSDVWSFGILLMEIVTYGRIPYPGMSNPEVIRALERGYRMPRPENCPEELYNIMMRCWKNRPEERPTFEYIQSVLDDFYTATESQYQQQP

The target of this test is GST-Nef fusion protein, wild-type NL43 strain Nef (HIV-1 (strain NL43)) (UniProt P03406). Kind of test: pull-down; GST-Nef fusion proteins on GST-Bind Resin incubated for 12 h at 4°C with total lysates of 293 cells transfected with Hck plasmids, in Nonidet P-40 lysis buffer (1% Nonidet P-40, 50 mM Tris, 150 mM NaCl) with protease inhibitors; bound Hck detected by Western blotting with anti-Hck (clone 18); only the target purified.

No constants are given. Whether binding was seen depends on the method and setting. Binding seen in cells or lysates may run through a third protein. Some results given as binding are weak or reduced against the parent protein; the word gives no strength.

As to “wild-type Hck (p56Hck) (from UniProt P08631-2 1-505) (enzyme)”, the binding result is given as “binds”.
